According to the supplement of paper PMC10849652:
The list shows a part of the results.

Chains of the proteins cited; added tags and fusions are not shown. Lines headed by an entry give the natural chain unless they say otherwise; changes in a name come on top.
UniProt Q9P2D0: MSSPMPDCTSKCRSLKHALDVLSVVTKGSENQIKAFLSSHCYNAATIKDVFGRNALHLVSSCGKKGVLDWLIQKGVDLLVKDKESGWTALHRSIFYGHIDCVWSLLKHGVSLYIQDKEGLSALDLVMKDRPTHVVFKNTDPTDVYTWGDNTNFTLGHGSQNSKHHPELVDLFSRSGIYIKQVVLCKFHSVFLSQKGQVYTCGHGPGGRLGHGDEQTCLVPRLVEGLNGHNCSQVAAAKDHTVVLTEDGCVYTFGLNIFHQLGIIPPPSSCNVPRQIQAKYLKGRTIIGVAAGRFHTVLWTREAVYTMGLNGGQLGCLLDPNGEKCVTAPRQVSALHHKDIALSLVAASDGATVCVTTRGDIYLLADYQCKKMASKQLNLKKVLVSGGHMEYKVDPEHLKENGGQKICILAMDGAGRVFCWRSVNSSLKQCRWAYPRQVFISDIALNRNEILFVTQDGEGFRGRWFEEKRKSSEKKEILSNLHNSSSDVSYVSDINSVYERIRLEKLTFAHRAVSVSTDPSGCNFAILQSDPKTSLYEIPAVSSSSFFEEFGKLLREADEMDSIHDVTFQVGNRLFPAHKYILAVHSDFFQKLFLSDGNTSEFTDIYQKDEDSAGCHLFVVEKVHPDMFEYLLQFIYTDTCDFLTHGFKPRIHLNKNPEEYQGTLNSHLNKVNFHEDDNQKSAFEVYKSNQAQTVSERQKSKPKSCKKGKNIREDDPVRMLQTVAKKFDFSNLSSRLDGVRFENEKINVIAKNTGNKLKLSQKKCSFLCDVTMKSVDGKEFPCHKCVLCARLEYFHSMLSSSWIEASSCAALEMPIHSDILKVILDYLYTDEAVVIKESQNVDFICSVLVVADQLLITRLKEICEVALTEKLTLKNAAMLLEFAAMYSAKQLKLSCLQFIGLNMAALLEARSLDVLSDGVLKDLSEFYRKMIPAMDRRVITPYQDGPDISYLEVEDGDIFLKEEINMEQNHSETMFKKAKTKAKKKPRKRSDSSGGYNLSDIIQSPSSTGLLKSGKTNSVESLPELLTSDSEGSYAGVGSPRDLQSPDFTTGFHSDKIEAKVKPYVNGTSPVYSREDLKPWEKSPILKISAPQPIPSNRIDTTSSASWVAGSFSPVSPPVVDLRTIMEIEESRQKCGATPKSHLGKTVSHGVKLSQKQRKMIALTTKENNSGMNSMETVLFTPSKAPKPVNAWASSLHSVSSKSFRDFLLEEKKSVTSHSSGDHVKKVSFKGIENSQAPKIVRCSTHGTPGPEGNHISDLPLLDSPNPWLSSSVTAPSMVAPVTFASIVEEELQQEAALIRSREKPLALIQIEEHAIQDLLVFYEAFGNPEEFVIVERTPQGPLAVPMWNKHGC
UniProt P04792, whole entry, looked up: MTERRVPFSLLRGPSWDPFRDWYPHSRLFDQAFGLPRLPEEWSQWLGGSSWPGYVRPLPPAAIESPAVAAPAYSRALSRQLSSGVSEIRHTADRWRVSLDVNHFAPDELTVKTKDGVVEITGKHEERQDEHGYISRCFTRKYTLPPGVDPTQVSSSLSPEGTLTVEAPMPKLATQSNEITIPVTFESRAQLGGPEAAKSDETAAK
UniProt Q12894: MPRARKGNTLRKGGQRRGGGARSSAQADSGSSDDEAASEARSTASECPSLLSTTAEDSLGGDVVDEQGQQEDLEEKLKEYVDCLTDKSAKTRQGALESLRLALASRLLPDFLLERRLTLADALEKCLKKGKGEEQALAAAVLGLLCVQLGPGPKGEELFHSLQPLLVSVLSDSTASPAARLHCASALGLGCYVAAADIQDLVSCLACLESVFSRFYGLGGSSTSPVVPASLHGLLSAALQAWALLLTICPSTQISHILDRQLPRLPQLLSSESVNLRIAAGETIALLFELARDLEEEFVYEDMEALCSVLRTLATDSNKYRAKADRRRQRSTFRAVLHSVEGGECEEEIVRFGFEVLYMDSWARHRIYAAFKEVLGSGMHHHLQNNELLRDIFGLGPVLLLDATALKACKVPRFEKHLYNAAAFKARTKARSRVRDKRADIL
UniProt P42858, whole entry, looked up: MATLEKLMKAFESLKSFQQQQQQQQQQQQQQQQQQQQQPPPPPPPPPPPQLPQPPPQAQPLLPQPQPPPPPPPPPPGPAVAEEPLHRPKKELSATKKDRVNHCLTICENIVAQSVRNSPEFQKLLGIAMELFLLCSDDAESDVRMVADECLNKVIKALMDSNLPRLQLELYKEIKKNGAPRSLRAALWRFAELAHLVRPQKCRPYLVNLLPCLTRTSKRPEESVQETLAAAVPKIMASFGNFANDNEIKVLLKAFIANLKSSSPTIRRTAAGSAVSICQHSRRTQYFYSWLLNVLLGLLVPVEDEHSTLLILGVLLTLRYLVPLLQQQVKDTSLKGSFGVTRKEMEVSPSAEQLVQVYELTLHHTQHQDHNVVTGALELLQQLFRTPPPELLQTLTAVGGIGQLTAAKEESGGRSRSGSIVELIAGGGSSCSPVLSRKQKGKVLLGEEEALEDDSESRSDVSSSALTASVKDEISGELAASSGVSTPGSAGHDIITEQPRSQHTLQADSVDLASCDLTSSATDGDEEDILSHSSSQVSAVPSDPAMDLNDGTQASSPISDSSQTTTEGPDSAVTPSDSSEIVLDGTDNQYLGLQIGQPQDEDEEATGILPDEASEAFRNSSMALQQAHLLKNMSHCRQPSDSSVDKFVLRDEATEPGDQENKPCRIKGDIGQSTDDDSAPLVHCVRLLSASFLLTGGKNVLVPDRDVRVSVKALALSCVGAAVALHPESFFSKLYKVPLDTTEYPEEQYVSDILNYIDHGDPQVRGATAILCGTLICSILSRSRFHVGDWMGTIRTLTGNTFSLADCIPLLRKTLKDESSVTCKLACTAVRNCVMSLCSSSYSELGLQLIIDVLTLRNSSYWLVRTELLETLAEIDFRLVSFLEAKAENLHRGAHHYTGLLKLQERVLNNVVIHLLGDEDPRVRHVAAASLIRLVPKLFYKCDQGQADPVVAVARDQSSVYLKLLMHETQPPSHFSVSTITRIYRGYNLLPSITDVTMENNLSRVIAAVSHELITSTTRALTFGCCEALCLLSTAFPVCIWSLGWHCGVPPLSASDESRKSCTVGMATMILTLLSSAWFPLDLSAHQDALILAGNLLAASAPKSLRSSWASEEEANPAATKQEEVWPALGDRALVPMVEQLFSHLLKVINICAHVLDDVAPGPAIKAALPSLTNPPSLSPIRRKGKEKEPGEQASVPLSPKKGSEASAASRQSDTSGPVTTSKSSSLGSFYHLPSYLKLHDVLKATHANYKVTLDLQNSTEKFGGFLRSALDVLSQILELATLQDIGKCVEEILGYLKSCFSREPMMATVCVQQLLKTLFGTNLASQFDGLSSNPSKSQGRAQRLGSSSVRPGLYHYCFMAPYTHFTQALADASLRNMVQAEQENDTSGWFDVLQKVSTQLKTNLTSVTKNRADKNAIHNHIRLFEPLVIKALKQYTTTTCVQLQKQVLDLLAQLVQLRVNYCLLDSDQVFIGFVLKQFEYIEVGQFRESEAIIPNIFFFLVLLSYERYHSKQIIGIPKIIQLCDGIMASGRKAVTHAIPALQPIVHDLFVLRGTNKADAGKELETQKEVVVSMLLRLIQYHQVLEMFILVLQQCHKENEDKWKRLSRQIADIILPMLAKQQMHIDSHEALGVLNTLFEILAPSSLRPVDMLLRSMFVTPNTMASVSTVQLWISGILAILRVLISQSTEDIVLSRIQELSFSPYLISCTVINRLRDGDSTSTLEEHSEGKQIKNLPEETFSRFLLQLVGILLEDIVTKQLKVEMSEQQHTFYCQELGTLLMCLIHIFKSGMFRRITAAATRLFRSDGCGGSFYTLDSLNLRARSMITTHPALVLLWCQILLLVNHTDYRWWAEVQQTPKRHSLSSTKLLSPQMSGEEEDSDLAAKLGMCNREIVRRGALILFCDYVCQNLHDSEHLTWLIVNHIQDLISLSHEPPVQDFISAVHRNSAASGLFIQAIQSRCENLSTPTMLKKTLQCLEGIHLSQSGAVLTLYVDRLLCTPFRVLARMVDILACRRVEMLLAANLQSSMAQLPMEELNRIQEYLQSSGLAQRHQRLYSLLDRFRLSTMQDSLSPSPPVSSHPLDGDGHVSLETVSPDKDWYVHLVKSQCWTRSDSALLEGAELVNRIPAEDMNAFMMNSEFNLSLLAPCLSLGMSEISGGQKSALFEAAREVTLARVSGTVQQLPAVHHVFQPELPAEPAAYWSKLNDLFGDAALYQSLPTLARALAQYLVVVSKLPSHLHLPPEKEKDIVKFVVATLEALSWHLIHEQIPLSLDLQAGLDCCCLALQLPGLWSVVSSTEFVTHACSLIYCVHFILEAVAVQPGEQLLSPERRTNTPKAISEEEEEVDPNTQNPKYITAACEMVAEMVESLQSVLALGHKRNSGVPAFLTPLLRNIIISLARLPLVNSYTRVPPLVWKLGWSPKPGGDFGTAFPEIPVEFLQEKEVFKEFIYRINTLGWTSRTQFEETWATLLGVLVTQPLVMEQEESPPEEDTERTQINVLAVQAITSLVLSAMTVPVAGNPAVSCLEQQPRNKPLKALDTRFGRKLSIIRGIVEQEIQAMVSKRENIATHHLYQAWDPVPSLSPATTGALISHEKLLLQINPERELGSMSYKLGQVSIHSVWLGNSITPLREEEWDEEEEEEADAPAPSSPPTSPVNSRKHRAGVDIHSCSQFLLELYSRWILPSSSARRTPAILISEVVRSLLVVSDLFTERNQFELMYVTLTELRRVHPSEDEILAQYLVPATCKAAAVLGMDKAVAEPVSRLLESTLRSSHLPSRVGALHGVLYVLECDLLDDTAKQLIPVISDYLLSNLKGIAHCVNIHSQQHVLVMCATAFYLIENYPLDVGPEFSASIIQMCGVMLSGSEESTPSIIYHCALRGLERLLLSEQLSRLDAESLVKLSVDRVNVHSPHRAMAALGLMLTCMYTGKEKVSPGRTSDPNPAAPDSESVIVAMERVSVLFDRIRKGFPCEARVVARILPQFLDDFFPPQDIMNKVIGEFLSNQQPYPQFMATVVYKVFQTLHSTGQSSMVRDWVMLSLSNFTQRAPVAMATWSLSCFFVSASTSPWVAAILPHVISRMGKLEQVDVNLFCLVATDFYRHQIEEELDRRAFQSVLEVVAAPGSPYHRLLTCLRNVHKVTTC
UniProt Q9NX55: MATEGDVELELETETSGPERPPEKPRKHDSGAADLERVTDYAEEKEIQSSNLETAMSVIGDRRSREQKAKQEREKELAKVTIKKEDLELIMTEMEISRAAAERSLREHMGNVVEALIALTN
UniProt Q70UQ0: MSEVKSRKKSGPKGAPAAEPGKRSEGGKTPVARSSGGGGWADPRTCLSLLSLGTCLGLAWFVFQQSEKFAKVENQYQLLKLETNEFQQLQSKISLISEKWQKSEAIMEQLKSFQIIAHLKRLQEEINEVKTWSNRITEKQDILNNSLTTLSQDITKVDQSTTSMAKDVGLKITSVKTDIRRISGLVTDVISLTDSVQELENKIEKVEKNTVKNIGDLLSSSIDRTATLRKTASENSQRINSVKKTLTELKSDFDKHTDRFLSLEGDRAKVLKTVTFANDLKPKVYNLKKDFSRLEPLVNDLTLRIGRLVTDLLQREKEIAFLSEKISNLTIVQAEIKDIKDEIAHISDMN
UniProt Q01628, whole entry, looked up: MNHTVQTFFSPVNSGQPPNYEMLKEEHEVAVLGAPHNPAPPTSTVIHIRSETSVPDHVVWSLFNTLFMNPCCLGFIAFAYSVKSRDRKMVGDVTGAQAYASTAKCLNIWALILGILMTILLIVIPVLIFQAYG
UniProt P41134: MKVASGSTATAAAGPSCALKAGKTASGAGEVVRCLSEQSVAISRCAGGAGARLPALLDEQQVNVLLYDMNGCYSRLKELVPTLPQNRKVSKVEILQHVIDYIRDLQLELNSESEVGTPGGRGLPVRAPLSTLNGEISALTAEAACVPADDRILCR
UniProt Q9NV31: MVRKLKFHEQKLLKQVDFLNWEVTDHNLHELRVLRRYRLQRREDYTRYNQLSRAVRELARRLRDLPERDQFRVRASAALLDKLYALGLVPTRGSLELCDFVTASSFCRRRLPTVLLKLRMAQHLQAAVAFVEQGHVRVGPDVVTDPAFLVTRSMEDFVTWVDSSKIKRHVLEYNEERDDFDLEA
UniProt P20839, whole entry, looked up: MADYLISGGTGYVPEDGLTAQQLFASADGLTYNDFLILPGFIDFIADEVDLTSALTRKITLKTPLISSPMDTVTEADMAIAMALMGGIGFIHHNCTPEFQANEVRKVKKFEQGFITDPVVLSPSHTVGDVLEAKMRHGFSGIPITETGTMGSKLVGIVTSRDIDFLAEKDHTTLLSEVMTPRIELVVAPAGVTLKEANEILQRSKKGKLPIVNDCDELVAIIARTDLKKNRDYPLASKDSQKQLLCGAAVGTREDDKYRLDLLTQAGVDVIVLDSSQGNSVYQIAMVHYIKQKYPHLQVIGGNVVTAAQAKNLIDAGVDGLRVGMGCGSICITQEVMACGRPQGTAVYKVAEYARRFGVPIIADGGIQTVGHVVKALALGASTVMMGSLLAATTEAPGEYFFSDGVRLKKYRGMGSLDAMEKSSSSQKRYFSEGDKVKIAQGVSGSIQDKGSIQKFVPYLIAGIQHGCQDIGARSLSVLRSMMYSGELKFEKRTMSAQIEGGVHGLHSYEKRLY

How the values were obtained:
Experiment in all cases: log2 fold change, soluble protein after heating vs DMSO (PISA); higher = thermal stabilisation; K562 lysate, 10 uM; active = over 0.2 and 3.5 SD of the protein, either way, in both replicates (recomputed)
alvocidib = compound: CN1CC[C@H](c2c(O)cc(O)c3c(=O)cc(-c4ccccc4Cl)oc23)[C@H](O)C1 [alvocidib]
Method in brief: (§1)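 The values are log-two fold changes in thermal stability compared with solvent controls and come from duplicates. They were obtained by TMTpro 16plex LC-MS/MS, with channel sums equalised, on the supernatant after 21,000xg for 90 min. That supernatant came from crude K562 extract at 1 mg/mL protein treated with 10 μM compound for 30 min, heated for 3 min across 48°C-58°C, pooled and brought to 0.5% NP-40 at 4°C.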

Tubastatin A = compound: CN1CCc2c(c3ccccc3n2Cc2ccc(C(=O)NO)cc2)C1 [Tubastatin A]
Method in brief: as §1

[1] = compound: CNC(=O)C1=CC=CC=C1NC2=NC(=NC=C2Cl)NC3=C(C=C(C=C3)N4CCOCC4)OC
Method in brief: as §1

defactinib = compound: CNC(=O)c1ccc(Nc2ncc(C(F)(F)F)c(NCc3nccnc3N(C)S(C)(=O)=O)n2)cc1 [defactinib]
Method in brief: as §1

[2] = compound: CNc1nc(-c2ccc3c(N)n[nH]c3c2)cc(N2C[C@@H](C(=O)NC3CCCCC3)CC[C@H]2C)n1
Method in brief: as §1

encorafenib = compound: COC(=O)N[C@@H](C)CNc1nccc(-c2cn(C(C)C)nc2-c2cc(Cl)cc(NS(C)(=O)=O)c2F)n1 [encorafenib]
Method in brief: as §1

[3] = compound: COC(=O)[C@H](CCSC)NC(=O)C1=C(C=C(C=C1)NC[C@H](CS)N)C2=CC=CC=C2
Method in brief: as §1

alisertib = compound: COc1cc(Nc2ncc3c(n2)-c2ccc(Cl)cc2C(c2c(F)cccc2OC)=NC3)ccc1C(=O)O [alisertib]
Method in brief: as §1

[4] = compound: COc1cc2nc(-c3cc(F)ccc3O)nc(N[C@@H]3CNC[C@H]3C(C)(C)O)c2cc1OC
Method in brief: as §1

gefitinib = compound: COc1cc2ncnc(Nc3ccc(F)c(Cl)c3)c2cc1OCCCN1CCOCC1 [gefitinib]
Method in brief: as §1

Measured: log2 fold change

IBTK (UniProt Q9P2D0)
inactive: alvocidib 0.083 | Tubastatin A -0.064 | [1] 0.023 | defactinib -0.016 | [2] 0.046 | encorafenib 0.015 | [3] -0.167 | alisertib -0.031 | [4] -0.027 | gefitinib 0.074

ILF3 isoform 7 (UniProt Q12906)
inactive: alvocidib -0.012 | Tubastatin A 0.038 | [1] -0.013 | defactinib -0.012 | [2] 0.008 | encorafenib 0.02 | [3] -0.06 | alisertib 0.002 | [4] 0.003 | gefitinib 0.024

HSPB1 (UniProt P04792)
inactive: alvocidib 0.003 | Tubastatin A -0.023 | [1] -0.003 | defactinib 0 | [2] -0.036 | encorafenib -0.001 | [3] 0.025 | alisertib 0.012 | [4] 0.009 | gefitinib -0.012

HSPH1 (UniProt Q92598)
inactive: alvocidib -0.007 | Tubastatin A -0.017 | [1] -0.01 | defactinib 0 | [2] -0.037 | encorafenib -0.017 | [3] 0.071 | alisertib -0.013 | [4] 0.006 | gefitinib -0.003

IMMT (UniProt C9J406)
inactive: alvocidib -0.027 | Tubastatin A -0.076 | [1] -0.162 | defactinib 0.075 | [2] 0.008 | encorafenib -0.085 | [3] -0.166 | alisertib -0.031 | [4] -0.073 | gefitinib -0.052

IFRD2 isoform 2 (UniProt Q12894)
inactive: alvocidib -0.034 | Tubastatin A 0.031 | [1] -0.043 | defactinib -0.025 | [2] -0.002 | encorafenib 0.007 | [3] -0.027 | [4] 0.062

HTT (UniProt P42858)
inactive: alvocidib 0 | Tubastatin A -0.195 | [1] 0.022 | defactinib 0.048 | [2] -0.043 | encorafenib 0.008 | [3] -0.003 | alisertib -0.005 | gefitinib -0.032

HTRA2 (UniProt O43464)
inactive: alvocidib -0.034 | Tubastatin A 0.049 | [1] 0 | defactinib 0.018 | [2] 0.055 | encorafenib -0.019 | [3] -0.045 | alisertib 0.002 | [4] 0.033 | gefitinib -0.003

IDE, A0A3B3ISG5
inactive: alvocidib 0.027 | Tubastatin A 0.015 | [1] -0.005 | defactinib 0.004 | [2] -0.023 | encorafenib 0.005 | [3] 0.018 | alisertib -0.007 | [4] 0.001 | gefitinib -0.029

HYPK (UniProt Q9NX55)
inactive: alvocidib -0.001 | Tubastatin A 0.063 | [1] 0.02 | defactinib 0.036 | [2] 0.074 | encorafenib -0.008 | [3] -0.07 | alisertib -0.089 | [4] 0.004 | gefitinib -0.093

IKBIP isoform 4 (UniProt Q70UQ0)
inactive: alvocidib -0.006 | Tubastatin A 0.024 | [1] -0.039 | defactinib -0.013 | [2] 0.016 | encorafenib -0.024 | [3] -0.032 | alisertib 0 | [4] -0.007 | gefitinib -0.027

ICE2 (UniProt Q659A1)
inactive: alvocidib 0.029 | Tubastatin A -0.02 | [1] -0.026 | defactinib 0.037 | [2] -0.015 | encorafenib 0.028 | [3] 0.025 | alisertib 0.003 | [4] 0.05 | gefitinib -0.016

Reprinted from above (6 entries):
IMMT (UniProt C9J406)
inactive: alvocidib -0.027 | Tubastatin A -0.076 | [1] -0.162 | defactinib 0.075 | [2] 0.008 | encorafenib -0.085 | [3] -0.166 | alisertib -0.031 | [4] -0.073 | gefitinib -0.052

IFRD2 isoform 2 (UniProt Q12894)
inactive: alvocidib -0.034 | Tubastatin A 0.031 | [1] -0.043 | defactinib -0.025 | [2] -0.002 | encorafenib 0.007 | [3] -0.027 | [4] 0.062

HTT (UniProt P42858)
inactive: alvocidib 0 | Tubastatin A -0.195 | [1] 0.022 | defactinib 0.048 | [2] -0.043 | encorafenib 0.008 | [3] -0.003 | alisertib -0.005 | gefitinib -0.032

HTRA2 (UniProt O43464)
inactive: alvocidib -0.034 | Tubastatin A 0.049 | [1] 0 | defactinib 0.018 | [2] 0.055 | encorafenib -0.019 | [3] -0.045 | alisertib 0.002 | [4] 0.033 | gefitinib -0.003

IDE, A0A3B3ISG5
inactive: alvocidib 0.027 | Tubastatin A 0.015 | [1] -0.005 | defactinib 0.004 | [2] -0.023 | encorafenib 0.005 | [3] 0.018 | alisertib -0.007 | [4] 0.001 | gefitinib -0.029

HYPK (UniProt Q9NX55)
inactive: alvocidib -0.001 | Tubastatin A 0.063 | [1] 0.02 | defactinib 0.036 | [2] 0.074 | encorafenib -0.008 | [3] -0.07 | alisertib -0.089 | [4] 0.004 | gefitinib -0.093

(list continues)

INPP5B (UniProt P32019)
inactive: alvocidib -0.027 | Tubastatin A -0.066 | [1] 0.017 | defactinib -0.006 | [2] -0.012 | encorafenib 0.007 | [3] 0.001 | alisertib -0.035 | [4] -0.013 | gefitinib -0.013

ILK (UniProt Q13418)
inactive: alvocidib 0.002 | Tubastatin A -0.084 | [1] -0.002 | defactinib -0.026 | [2] -0.061 | encorafenib -0.032 | [3] 0.038 | alisertib 0.007 | [4] -0.04 | gefitinib 0.013

IGSF8 (UniProt Q969P0)
inactive: alvocidib -0.005 | Tubastatin A 0 | [1] 0.026 | defactinib -0.038 | [2] 0.003 | encorafenib 0.138 | [3] -0.089 | alisertib -0.149 | [4] -0.003 | gefitinib 0.115

IFITM3 (UniProt Q01628)
inactive: alvocidib -0.001 | Tubastatin A -0.329 | [1] 0.01 | defactinib 0.118 | [2] 0.042 | encorafenib 0.043 | [3] -0.142 | alisertib 0.109 | [4] -0.137 | gefitinib 0.291

ID1 (UniProt P41134)
inactive: alvocidib -0.015 | Tubastatin A 0.027 | [1] 0.013 | defactinib 0.014 | [2] 0 | alisertib -0.065 | gefitinib -0.155

IMP3 (UniProt Q9NV31)
inactive: alvocidib -0.157 | Tubastatin A 0.013 | [1] 0.018 | defactinib -0.049 | [2] -0.053 | encorafenib 0.004 | [3] -0.023 | alisertib -0.047 | [4] 0.001 | gefitinib -0.003

IMPACT (UniProt Q9P2X3)
inactive: alvocidib 0.002 | Tubastatin A -0.04 | [1] -0.006 | defactinib 0.013 | [2] -0.05 | encorafenib 0.063 | [3] -0.083 | alisertib -0.024 | [4] -0.044 | gefitinib 0.167

IGHG1 (UniProt P01857)
inactive: alvocidib -0.079 | Tubastatin A 0.542 | [1] 0.221 | defactinib 0.05 | [2] -0.132 | alisertib -0.065 | gefitinib 0.354

IMPA2 (UniProt O14732)
inactive: alvocidib -0.185 | Tubastatin A 0.041 | [1] -0.032 | defactinib -0.174 | [2] -0.014 | encorafenib -0.027 | [3] 0.059 | [4] -0.09

IMPDH1 isoform 6 (UniProt P20839)
inactive: alvocidib -0.009 | [1] 0.002 | defactinib -0.002 | [2] 0.018 | encorafenib -0.001 | alisertib 0.004 | [4] -0.002 | gefitinib 0.005
active: Tubastatin A -0.226 | [3] -0.478

IK (UniProt Q13123)
inactive: alvocidib -0.016 | Tubastatin A -0.108 | [1] 0.017 | defactinib 0.017 | [2] 0.02 | encorafenib 0.04 | [3] -0.047 | alisertib 0.013 | [4] 0.015 | gefitinib 0.007
